Results deposited as PubChem BioAssay AID1259424 (University of Nebraska Medical Center, 2018)
Purpose: 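Seek colon cancer survival genes behaving like KSR1, using a six-gene signature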 (primary screen). Cells: human HCT116 colon cancer cells. Knock-down reagent: siRNA pool against human genes, 50 nM. Measured: 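Log2 levels of six mRNAs (branched-DNA multiplex), adjusted by two reference genes and the non-targeting median, then scored against the average KSR1 knockdown pattern as Pearson r and euclidean distance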. Scale: mean correlation with KSR1 profile and KSR1 correlation: higher = expression change more like KSR1 knockdown; mean distance from KSR1 profile: higher = expression change less like KSR1 knockdown.
In all, the deposit lists about 14,000 reagents; this is an unselected part. 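Higher correlation or smaller distance means closer resemblance to KSR1 loss; control wells, including KSR1 knockdowns, recur on many plates.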 Reagent sequences are not shown. The record does not give: the time to read-out.

| Target gene | mean correlation with KSR1 profile | mean distance from KSR1 profile | KSR1 correlation, replicate 1 | KSR1 correlation, replicate 2 | KSR1 correlation, replicate 3 |
| --- | --- | --- | --- | --- | --- |
| TCF4 (GeneID 6925) | -0.19 | 2.82 | -0.0752 | -0.145 | -0.00418 |
| IRX3 (GeneID 79191) | 0.676 | 1.29 | 0.723 | 0.796 | 0.542 |
| FBXW4P1 (GeneID 26226) | 0.304 | 2.16 | 0.213 | 0.325 | 0.232 |
| INO80D (GeneID 54891) | -0.425 | 1.84 | -0.378 | -0.321 | -0.522 |
| DVL2 (GeneID 1856) | 0.00717 | 2.62 | -0.368 | 0.0358 | 0.124 |
| CHST15 (GeneID 51363) | 0.729 | 2.7 | 0.594 | 0.693 | 0.799 |
| DOK4 (GeneID 55715) | -0.0348 | 1.42 | 0.0748 | -0.0972 | 0.0075 |
| CSF2 (GeneID 1437) | 0.264 | 1.46 | 0.337 | 0.402 | 0.252 |
| CCDC85B (GeneID 11007) | -0.255 | 1.36 | -0.278 | -0.173 | -0.302 |
| COMMD5 (GeneID 28991) | 0.0346 | 1.91 | -0.0064 | -0.0307 | -0.33 |
| ADAMTS18 (GeneID 170692) | -0.0206 | 2.04 | -0.018 | -0.174 | -0.0523 |
| GYG2 (GeneID 8908) | -0.411 | 1.93 | -0.356 | -0.169 | -0.556 |
| TPPP (GeneID 11076) | -0.564 | 1.77 | -0.436 | -0.473 | -0.654 |
| LMNB2 (GeneID 84823) | -0.167 | 1.18 | 0.303 | -0.269 | -0.268 |
| DDX41 (GeneID 51428) | -0.656 | 1.79 | -0.837 | -0.554 | -0.437 |
| PPIF (GeneID 10105) | -0.137 | 1.02 | 0.0609 | -0.525 | 0.0258 |
| DDC (GeneID 1644) | 0.000361 | 3.34 | -0.429 | 0.0344 | 0.32 |
| TSNAX (GeneID 7257) | -0.104 | 2.15 | 0.0329 | -0.325 | 0.0521 |
| ABR (GeneID 29) | -0.266 | 1.86 | 0.104 | -0.193 | -0.397 |
| COQ3 (GeneID 51805) | -0.371 | 2.5 | -0.0601 | -0.353 | -0.459 |
| COMT (GeneID 1312) | -0.233 | 3.55 | -0.0989 | -0.237 | -0.486 |

Next part; the last 2 above are carried over.
| Target gene | mean correlation with KSR1 profile | mean distance from KSR1 profile | KSR1 correlation, replicate 1 | KSR1 correlation, replicate 2 | KSR1 correlation, replicate 3 |
| --- | --- | --- | --- | --- | --- |
| COQ3 (GeneID 51805) | -0.371 | 2.5 | -0.0601 | -0.353 | -0.459 |
| COMT (GeneID 1312) | -0.233 | 3.55 | -0.0989 | -0.237 | -0.486 |
| PCDHGB2 (GeneID 56103) | -0.148 | 1.82 | -0.209 | -0.091 | -0.246 |
| PMAIP1 (GeneID 5366) | -0.569 | 2.59 | -0.677 | -0.556 | -0.4 |
| IL16 (GeneID 3603) | 0.412 | 1.17 | 0.458 | 0.333 | 0.402 |
| SHANK1 (GeneID 50944) | -0.193 | 1.78 | -0.121 | -0.0895 | -0.132 |
| FIS1 (GeneID 51024) | -0.292 | 1.6 | -0.38 | -0.488 | -0.0252 |
| SLC25A31 (GeneID 83447) | 0.657 | 2.52 | 0.604 | 0.577 | 0.676 |
| MAML1 (GeneID 9794) | -0.248 | 2.2 | -0.245 | -0.529 | -0.372 |
| IL6 (GeneID 3569) | -0.237 | 1.05 | 0.0216 | 0.29 | -0.56 |
| GINS1 (GeneID 9837) | -0.156 | 2.41 | 0.0568 | -0.264 | -0.243 |
| CEP78 (GeneID 84131) | 0.428 | 2.01 | 0.273 | 0.332 | 0.689 |
| ST8SIA1 (GeneID 6489) | -0.508 | 5.61 | -0.458 | -0.528 | -0.506 |
| PPFIA3 (GeneID 8541) | 0.403 | 1.22 | 0.0149 | 0.421 | 0.683 |
| STAP1 (GeneID 26228) | -0.406 | 2.63 | -0.426 | -0.42 | -0.153 |
| TWSG1 (GeneID 57045) | 0.123 | 2.98 | -0.118 | 0.113 | 0.525 |
| BCKDHB (GeneID 594) | 0.475 | 4.13 | 0.197 | 0.298 | 0.726 |
| VEZT (GeneID 55591) | -0.504 | 2.39 | -0.453 | -0.428 | -0.342 |
| GLRX (GeneID 2745) | 0.219 | 1.77 | 0.119 | -0.0674 | 0.388 |
| H2AC4 (GeneID 8335) | -0.422 | 3.31 | -0.383 | -0.418 | -0.382 |
| CCDC88C (GeneID 440193) | 0.421 | 1.21 | 0.377 | -0.154 | 0.446 |
| PPP4R1L (GeneID 55370) | 0.827 | 0.851 | 0.618 | 0.726 | 0.494 |
| RANBP17 (GeneID 64901) | -0.461 | 1.97 | -0.634 | -0.678 | -0.321 |
| CHST1 (GeneID 8534) | -0.0784 | 4.74 | -0.0984 | -0.145 | -0.0509 |
| H2BC11 (GeneID 8970) | -0.685 | 1.36 | -0.426 | -0.323 | -0.793 |
| H4C1 (GeneID 8359) | -0.643 | 1.47 | -0.444 | -0.858 | -0.637 |
| CDH10 (GeneID 1008) | 0.438 | 1.53 | 0.61 | 0.533 | 0.185 |
| SNHG32 (GeneID 50854) | -0.338 | 1.52 | -0.388 | -0.178 | -0.00766 |
| IDUA (GeneID 3425) | 0.019 | 2.75 | 0.0828 | -0.119 | -0.0169 |
| SLC48A1 (GeneID 55652) | -0.592 | 3.17 | -0.741 | -0.497 | -0.362 |
| GHITM (GeneID 27069) | 0.298 | 2.25 | 0.184 | -0.0237 | 0.0519 |
